PubChem BioAssay AID652243 – Drosophila RNAi Screening Center | 2013

Screen: 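Fly genes required for human androgen receptor driven transcription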 (primary screen)
Cell system: Drosophila S2R+ cells
Reagents: long dsRNA against Drosophila genes
Time to read-out: 72 h (48 h, then 24 h hormone)
Challenge: synthetic androgen R1881 at 10 nM for 24 h
Detection: 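Per-well raw luminescence of the androgen-driven firefly reporter and of the Renilla control, two replicates each, without normalisation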
Direction: firefly reporter light: higher = more light from androgen-responsive reporter; Renilla control light: higher = more constitutive control signal (cell number, transfection)
Rule for the call: 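Hit when the log firefly-to-Renilla ratio dropped or increased by a fixed fold versus the mean of GFP or LacZ controls across duplicate plates; lowering cut given as 1.5 and as 3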
Calls: active = hit: reporter lowered or raised; inactive = no hit
The deposit covers about 24,000 reagents; below is an unselected part of those that have a named target and a result. In the full data, 246 (1%) are marked active. 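Plates not normalised; calls are printed but the firefly/Renilla ratio behind them is not deposited; fold cut for lowering reported inconsistently.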 The raw values are shown without normalisation. Entries without a mark were called inactive. The record does not give: the amount of reagent.

The first 5 entries as a preview:
| target | DRSC id | firefly reporter light, replicate 1 | firefly reporter light, replicate 2 | Renilla control light, replicate 1 | Renilla control light, replicate 2 |
| --- | --- | --- | --- | --- | --- |
| CG5854 (GeneID 42831) | DRSC15894 | 3.62e5 | 4.90e5 | 3.05e6 | 3.72e6 |
| CG5854 (GeneID 42831) | DRSC28599 | 4.85e5 | 3.73e5 | 1.67e6 | 1.35e6 |
| D12 (GeneID 34172) | DRSC03311 | 8.14e5 | 1.16e6 | 2.61e6 | 1.51e6 |
| CG34286 (GeneID 5740178) | DRSC21790 | 6.12e5 | 4.92e5 | 2.47e6 | 2.66e6 |
| CG15601 (GeneID 32509) | DRSC19670 | 8.20e5 | 7.48e5 | 3.51e6 | 1.82e6 |

The list itself, from the first entry:
| target | DRSC id | firefly reporter light, replicate 1 | firefly reporter light, replicate 2 | Renilla control light, replicate 1 | Renilla control light, replicate 2 |
| --- | --- | --- | --- | --- | --- |
| CG5854 (GeneID 42831) | DRSC15894 | 3.62e5 | 4.90e5 | 3.05e6 | 3.72e6 |
| CG5854 (GeneID 42831) | DRSC28599 | 4.85e5 | 3.73e5 | 1.67e6 | 1.35e6 |
| D12 (GeneID 34172) | DRSC03311 | 8.14e5 | 1.16e6 | 2.61e6 | 1.51e6 |
| CG34286 (GeneID 5740178) | DRSC21790 | 6.12e5 | 4.92e5 | 2.47e6 | 2.66e6 |
| CG15601 (GeneID 32509) | DRSC19670 | 8.20e5 | 7.48e5 | 3.51e6 | 1.82e6 |
| ScsbetaG (GeneID 44001) | DRSC11294 | 1.58e5 | 1.93e5 | 2.23e6 | 2.23e6 |
| ScsbetaG (GeneID 44001) | DRSC26044 | 3.51e5 | 3.06e5 | 7.60e5 | 7.07e5 |
| Hsp67Ba (GeneID 39076) | DRSC11191 | 77763 | 77989 | 1.42e6 | 1.27e6 |
| Hsp67Ba (GeneID 39076) | DRSC23678 | 3.66e5 | 5.24e5 | 4.07e5 | 7.12e5 |
| Srp68 (GeneID 39028) | DRSC10475 | 5.17e5 | 6.25e5 | 9.50e5 | 1.21e6 |
| Srp68 (GeneID 39028) | DRSC28655 | 6.42e5 | 8.41e5 | 1.45e6 | 1.72e6 |
| Chpf (GeneID 32259) | DRSC19491 | 4.11e5 | 4.35e5 | 2.94e6 | 2.17e6 |
| Chpf (GeneID 32259) | DRSC19893 | 1.43e5 | 1.60e5 | 1.04e6 | 8.41e5 |
| 14-3-3epsilon (GeneID 42186) | DRSC16370 | 73149 | 62296 | 1.35e6 | 1.05e6 |
| otu (GeneID 31789) | DRSC18811 | 2.71e5 | 2.69e5 | 3.30e6 | 3.08e6 |
| otu (GeneID 31789) | DRSC27953 | 9.85e5 | 4.63e5 | 3.28e6 | 1.19e6 |
| schlank (GeneID 50392) | DRSC18102 | 2.99e5 | 4.01e5 | 2.82e6 | 1.82e6 |
| schlank (GeneID 50392) | DRSC18313 | 3.13e5 | 3.48e5 | 3.34e6 | 2.79e6 |
| DIP-iota (GeneID 33925) | DRSC02140 | 2.36e5 | 2.50e5 | 1.41e6 | 1.61e6 |
| DIP-iota (GeneID 33925) | DRSC23965 | 8.23e5 | 9.34e5 | 7.76e5 | 6.60e5 |
| CG3368 (GeneID 43292) | DRSC15485 | 59203 | 77519 | 4.90e5 | 4.66e5 |
| TwdlE (GeneID 34075) | DRSC02392 | 2.06e5 | 2.53e5 | 1.92e6 | 1.92e6 |
| TwdlE (GeneID 34075) | DRSC24943 | 5.79e5 | 8.08e5 | 1.30e6 | 1.43e6 |
| CG15482 (GeneID 34717) | DRSC02492 | 1.98e5 | 2.49e5 | 1.34e6 | 1.40e6 |
| CG10086 (GeneID 40920) | DRSC14183 | 1.37e5 | 1.55e5 | 2.13e6 | 2.14e6 |
| ens (GeneID 38491) | DRSC08454 | 8.14e5 | 6.47e5 | 2.21e6 | 2.33e6 |
| ens (GeneID 38491) | DRSC25507 | 7.71e5 | 8.81e5 | 1.26e6 | 1.28e6 |
| Mic26-27 (GeneID 41959) | DRSC15913 | 1.75e5 | 1.21e5 | 8.01e5 | 8.43e5 |
| RabX1 (GeneID 44172) | DRSC04678 | 1.85e5 | 1.93e5 | 1.79e6 | 1.38e6 |
| CG41367 (retired record) (GeneID 5740211) | DRSC38653 | 8.57e5 | 8.14e5 | 2.03e6 | 2.37e6 |
| RnpS1 (GeneID 41147) | DRSC15154 | 28104 | 16610 | 3.25e5 | 3.56e5 |
| HisRS (GeneID 32841) | DRSC19986 | 4.04e5 | 3.75e5 | 3.33e6 | 2.82e6 |
| Mad1 (GeneID 35954) | DRSC07561 | 1.17e6 | 7.57e5 | 1.99e6 | 1.96e6 |
| Mocs1 (GeneID 39238) | DRSC11225 | 1.95e5 | 2.30e5 | 1.59e6 | 1.37e6 |
| Ugt37C2 (GeneID 53513) | DRSC02247 | 2.19e5 | 2.56e5 | 1.74e6 | 1.57e6 |
| cuff (GeneID 36269) | DRSC06315 | 3.69e5 | 1.84e5 | 1.82e6 | 1.74e6 |
| Sirt2 (GeneID 42414) | DRSC15714 | 2.45e5 | 3.69e5 | 3.76e6 | 3.88e6 |
| Sirt2 (GeneID 42414) | DRSC26964 | 4.41e5 | 3.38e5 | 7.47e5 | 5.53e5 |
| Bx42 (GeneID 31840) | DRSC17743 | 46900 | 57492 | 5.15e5 | 5.30e5 |
| Bx42 (GeneID 31840) | DRSC27666 | 2.98e5 | 2.32e5 | 6.14e5 | 6.23e5 |
